Measurements from PubChem BioAssay AID720504 (National Center for Advancing Translational Sciences (NCATS), 2013).
Screen size: about 360,000 compounds; about 10,000 (2.8%) were called active. Inconclusive results, whose numbers are uncertain, are shown with a selection of clear calls. Calls come from the whole dose curve; as a rule, active = well fitted inhibition curve with a large enough effect; inconclusive = small, poorly fitted or top-dose-only effect; inactive = flat fitted curve, though single readings scatter. Potencies beside an inconclusive call are fits to weak or partial responses and may not hold up.

By UniProt entry, the sequences of proteins in these tests, tags left out.
UniProt P53350, whole entry, looked up: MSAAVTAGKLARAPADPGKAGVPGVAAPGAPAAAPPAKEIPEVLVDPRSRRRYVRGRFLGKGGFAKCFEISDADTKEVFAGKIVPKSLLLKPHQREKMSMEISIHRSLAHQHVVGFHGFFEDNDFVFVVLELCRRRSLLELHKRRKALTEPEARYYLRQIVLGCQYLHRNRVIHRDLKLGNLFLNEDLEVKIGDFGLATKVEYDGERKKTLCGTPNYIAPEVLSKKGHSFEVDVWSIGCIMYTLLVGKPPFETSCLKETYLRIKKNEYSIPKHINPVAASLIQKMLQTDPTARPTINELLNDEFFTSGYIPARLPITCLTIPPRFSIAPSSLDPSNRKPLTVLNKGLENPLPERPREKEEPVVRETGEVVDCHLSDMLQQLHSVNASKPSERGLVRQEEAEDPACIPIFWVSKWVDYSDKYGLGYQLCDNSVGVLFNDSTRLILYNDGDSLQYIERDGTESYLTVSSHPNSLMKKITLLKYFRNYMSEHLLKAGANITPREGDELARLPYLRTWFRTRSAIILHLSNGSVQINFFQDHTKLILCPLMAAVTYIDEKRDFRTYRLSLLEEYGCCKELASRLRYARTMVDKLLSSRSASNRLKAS

Each molecule was assayed against Serine/threonine-protein kinase PLK1 (Homo sapiens) (UniProt P53350) (assay: qHTS for Inhibitors of PLK1-PDB (polo-like kinase 1 - polo-box domain): Primary Screen). Settings: Plk1 PBD binding of FITC phosphopeptide, fluorescence polarization.
% is set by controls: 0 for no effect and ±100 for the full control effect; potency is the fitted concentration of half-maximal effect.
Note: nearly all actives have a fitted effect of over 65% in size.
Throughout, for max response, negative = inhibition: series mostly up to about 57 µM.

Row | SMILES | max response, negative = inhibition | Potency
1 | COc1ccc(-c2nnc(SCC(=O)N(C)C3CCS(=O)(=O)C3)n2C(C)C)cc1 (stereo unspecified) | inconclusive: -14.8% [inhibitor] | 
2 | O=[N+]([O-])c1cc(Cl)cc(/C=N\Nc2ccccn2)c1O |  | active: 3.36 µM
3 | O=C(CCN1CCCCC1)c1ccc2c(c1)OCCO2 | inconclusive: -34.3% [inhibitor] | 
4 | COc1ccc(-c2cc(=O)oc3cc(OCC(=O)Nc4ccccn4)ccc23)cc1 |  | active: 2.99 µM
5 | Cc1ccsc1/C=C1/SC(N2CC(C)OC(C)C2)=NC1=O (stereo unspecified) |  | active: 29.9 µM
6 | CC(=O)NC(=S)NNC(=O)COc1ccc([N+](=O)[O-])cc1 |  | active: 21.2 µM
7 | CCC(/C=C1\Sc2ccc(OC)cc2N1CCO)=C\c1sc2ccc(OC)cc2[n+]1CCO |  | inconclusive: 11.9 µM [inhibitor, partial curve]
8 | COc1ccc(CNn2c(-c3cccs3)nc3ccccc3c2=O)cc1OC |  | inconclusive: 23.8 µM [inhibitor, partial curve]
9 | CC(=O)Nc1ccc2nc3c(=O)n(C)c(=O)n(C)c3nc2c1 |  | inconclusive: 23.8 µM [inhibitor, partial curve]
10 | Cc1c(C)n(CC(O)CSc2ccccc2)c2ccccc12 (stereo unspecified) |  | active: 2.38 µM
11 | CCOc1ccccc1N=c1oc2cc(O)ccc2cc1C(=O)NCC1CCCO1 (stereo unspecified) | inactive: -0.53% | 
12 | N#Cc1c(NC(=O)c2ccc(Br)o2)n(-c2ccccc2)c2nc3ccccc3nc12 |  | inconclusive: 23.8 µM [inhibitor, partial curve]
13 | Cc1ccc(S(=O)(=O)N2[C@@H](c3ccc(F)cc3)C(C(=O)O)=CC[C@H]2c2ccc(Cl)cc2)cc1 | inconclusive: -33% [inhibitor] | 
14 | COc1ccccc1-n1c(C)c(C(=O)O)c2cc(OC)c3ccccc3c21 | inconclusive: -30.2% [inhibitor] | 
15 | COc1ccccc1NS(=O)(=O)c1cc(NC(=O)Nc2cccc(C)c2)ccc1N1CCCCC1 |  | inconclusive: 26.7 µM [inhibitor, partial curve]
16 | Cn1c(NNC(=O)/C=C/c2ccc3c(c2)OCO3)cc(=O)n(C)c1=O | inconclusive: -31.1% [inhibitor] | 
17 | CC(Oc1cc2oc(=O)c3c(c2cc1Cl)CCCC3)C(=O)NCCN1CCOCC1 (stereo unspecified) |  | active: 23.8 µM
18 | CC[n+]1c(/C=C2\C=C(C)CC(C)(C)C2)sc2ccccc21 |  | active: 21.2 µM
19 | CCOc1cc(N2CCOCC2)c(OCC)cc1NC(=O)[C@H](C)N1C(=O)C2CC=CCC2C1=O (stereo partly specified) | inactive: -8.37% | 
20 | NNc1nc2ccccc2nc1C(F)(F)F |  | active: 18.9 µM
21 | COc1ccc(Oc2ccc3c(C(F)(F)F)cc(C(F)(F)F)nc3n2)cc1 | inactive: -6.61% | 

Quoted from the listing:
Value of COc1ccccc1NS(=O)(=O)c1cc(NC(=O)Nc2cccc(C)c2)ccc1N1CCCCC1 under Potency: inconclusive: 26.7 µM [inhibitor, partial curve]
Value of COc1ccc(Oc2ccc3c(C(F)(F)F)cc(C(F)(F)F)nc3n2)cc1 under max response, negative = inhibition: inactive: -6.61%
